Values of other authors as cited in patent US11261215B2, “Somatostatin prodrugs” (YISSUM RESEARCH DEVELOPMENT COMPANY OF THE HEBREW …, priority 2017, dated 2022).
At least one read-out could not be matched to a standard name with certainty.

Conditions: rats, parent c(PFwKTF); cited from earlier work

c(PF(NMe)w(NMe)KT(NMe)F) (PFWKTF; head-to-tail cyclic, N-methylations, D-Trp; MOD_RES (1)..(6) head-to-tail cyclization; MOD_RES (3)..(3) N-methyl D-Trp; MOD_RES (4)..(4) N-methyl Lys; MOD_RES (6)..(6) N-methyl Phe) [Somato8]
absolute oral bioavailability relative to the parent peptide: nearly five times higher than the parent peptide
